Measured values: patent publication US20240201191A1, “CITRULLINATED PROTEINS AS BIOMARKERS AND THERAPY TARGETS FOR CANCER” (BOARD OF REGENTS, THE UNIVERSITY OF TEXAS SYSTEM, priority 2022, published 2024)

Each substance was assayed on HCC1954 (HR-/Her2+) cells (assay: Cell surface HLA-bound peptidyl-citrullinome by mass spectrometry, HCC1954). Settings: mild acid elution, LC-MS/MS, FDR=0.01; class by peptide length.
Type: cell-based, human
In the case of “GGGNFRGGGRGGFGRGGGR*GGFNKGQ (GGGNFRGGGRGGFGRGGGRGGFNKGQ; citrulline at R19; MOD_RES (19)..(19) Citrullinated Arginine) [SEQ ID NO: 51, GAR1 peptide, R.19(Cit.)]”, the “Cell surface MHC binding citrullinated peptide identified in HCC1954 (HR−/Her2+)” value is reported as “MHC-II (from 12 to 34 as MHC-IU binding peptides)”.
“LGGLAVAR*DDGL (LGGLAVARDDGL; citrulline at R8; MOD_RES (8)..(8) Citrullinated Arginine) [SEQ ID NO: 124, TAGLN2 peptide, R8(Cit.)]” was tested, and the “Cell surface MHC binding citrullinated peptide identified in HCC1954 (HR−/Her2+)” value was “MHC-II (from 12 to 34 as MHC-IU binding peptides)”.
For “LIR*KHTGSGILSMANAGPNTN (LIRKHTGSGILSMANAGPNTN; citrulline at R3; oxidized M13; MOD_RES (3)..(3) Citrullinated Arginine; MOD_RES (13)..(13) Oxidized Methionine) [SEQ ID NO: 92, PPIAL4E peptide, R3(Cit.); M13(Oxi.)]”, the “Cell surface MHC binding citrullinated peptide identified in HCC1954 (HR−/Her2+)” value was “MHC-II (from 12 to 34 as MHC-IU binding peptides)”.
“NPDGPLGAAAGAAGGSWGR*PGPPPA (NPDGPLGAAAGAAGGSWGRPGPPPA; citrulline at R19; MOD_RES (19)..(19) Citrullinated Arginine) [SEQ ID NO: 25, CHST2 peptide, R19(Cit.)]” was tested, and the “Cell surface MHC binding citrullinated peptide identified in HCC1954 (HR−/Her2+)” value was “MHC-II (from 12 to 34 as MHC-IU binding peptides)”.
“QIR*QFAAVLTR*RRLNTRWRRLAAEQRESLKSL (QIRQFAAVLTRRRLNTRWRRLAAEQRESLKSL; citrulline at R3 and R11; MOD_RES (3)..(3) Citrullinated Arginine; MOD_RES (11)..(11) Citrullinated Arginine) [SEQ ID NO: 61, IPO4 peptide, R3(Cit.); RII(Cit.)]” was tested, and the “Cell surface MHC binding citrullinated peptide identified in HCC1954 (HR−/Her2+)” value was “MHC-II (from 12 to 34 as MHC-IU binding peptides)”.
In the case of “R*AEASQELLAQ (RAEASQELLAQ; citrulline at R1; MOD_RES (1)..(1) Citrullinated Arginine) [SEQ ID NO: 132, UBA7 peptide, R1(Cit.)]”, the “Cell surface MHC binding citrullinated peptide identified in HCC1954 (HR−/Her2+)” value is reported as “MHC-I (amino acid lengths putatively from 8 to 11 were considered as MHC-I binding peptides)”.
For “TVHAITATQKTVDGPSGKLWR* (citrulline at R21; MOD_RES (21)..(21) Citrullinated Arginine) [SEQ ID NO: 47, GAPDH peptide, R21(Cit.)]”, the “Cell surface MHC binding citrullinated peptide identified in HCC1954 (HR−/Her2+)” value was “MHC-II (from 12 to 34 as MHC-IU binding peptides)”.
In the case of “VTRR*LGAGARAAPRR (VTRRLGAGARAAPRR; citrulline at R4; MOD_RES (4)..(4) Citrullinated Arginine) [SEQ ID NO: 26, COBLL1 peptide, R4(Cit.)]”, the “Cell surface MHC binding citrullinated peptide identified in HCC1954 (HR−/Her2+)” value is reported as “MHC-II (from 12 to 34 as MHC-IU binding peptides)”.
For “YVTIIDAPGHR*DFIKNM (YVTIIDAPGHRDFIKNM; citrulline at R11; MOD_RES (11)..(11) Citrullinated Arginine) [SEQ ID NO: 37, EEF1A1 peptide, R11(Cit.)]”, the “Cell surface MHC binding citrullinated peptide identified in HCC1954 (HR−/Her2+)” value was “MHC-II (from 12 to 34 as MHC-IU binding peptides)”.
